# The other results are listed elsewhere or left out.
# What was measured:
# Assay in all cases: glycan array binding signal (z-score within array); higher = stronger binding
# Conditions in all cases: glycan notation: IUPAC condensed, linker removed
# [1] = biological target: Fuc(a1-2)[Gal(a1-3)]Gal(b1-4)GlcNAc(b1-2)Man
# How it was run: (§1)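 Columns mapping to the same glycan were averaged after glycan names were converted to IUPAC-condensed notation. The data come from 3228 arrays in the Consortium for Functional Glycomics database, limited to those with an available protein sequence. Binding is reported as a within-array Z-score averaged across arrays of one protein sequence and across linkers.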
# [2] = biological target: Fuc(a1-2)[Gal(a1-3)]Gal(b1-4)GlcNAc(b1-2)Man(a1-3)[Fuc(a1-2)[Gal(a1-3)]Gal(b1-4)GlcNAc(b1-2)Man(a1-6)]Man(b1-4)GlcNAc(b1-4)GlcNAc
# How it was run: as §1
# [3] = biological target: Fuc(a1-2)[Gal(a1-3)]Gal(b1-4)GlcNAc(b1-2)Man(a1-3)[Fuc(a1-2)[Gal(a1-3)]Gal(b1-4)GlcNAc(b1-2)Man(a1-6)]Man(b1-4)GlcNAc(b1-4)[Fuc(a1-6)]GlcNAc
# How it was run: as §1
# [4] = biological target: Fuc(a1-2)[Gal(a1-3)]Gal(b1-4)GlcNAc(b1-3)GalNAc
# How it was run: as §1
# [5] = biological target: Fuc(a1-2)[Gal(a1-3)]Gal(b1-4)GlcNAc(b1-3)[Fuc(a1-2)[Gal(a1-3)]Gal(b1-4)GlcNAc(b1-6)]GalNAc
# How it was run: as §1
# [6] = biological target: Fuc(a1-2)[Gal(a1-3)]Gal(b1-4)GlcNAc(b1-6)GalNAc
# How it was run: as §1
# [7] = biological target: Fuc(a1-2)[Gal(a1-3)]Gal(b1-4)[Fuc(a1-3)]Glc
# How it was run: as §1
# [8] = biological target: Fuc(a1-2)[Gal(a1-3)]Gal(b1-4)[Fuc(a1-3)]GlcNAc
# How it was run: as §1
# [9] = biological target: Fuc(a1-2)[Gal(a1-3)]Gal(b1-4)[Fuc(a1-3)]GlcNAc(b1-3)GalNAc
# How it was run: as §1
# [10] = biological target: Fuc(a1-2)[Gal(a1-4)]Gal(b1-4)GlcNAc
# How it was run: as §1
# [11] = biological target: Fuc(a1-2)[GalNAc(a1-3)]Gal
# How it was run: as §1
# [12] = biological target: Fuc(a1-2)[GalNAc(a1-3)]Gal(b1-3)GalNAc(a1-3)[Fuc(a1-2)]Gal(b1-4)GlcNAc
# How it was run: as §1
# [13] = biological target: Fuc(a1-2)[GalNAc(a1-3)]Gal(b1-3)GalNAc(b1-3)Gal(a1-4)Gal(b1-4)Glc
# How it was run: as §1
# [14] = biological target: Fuc(a1-2)[GalNAc(a1-3)]Gal(b1-3)GlcNAc
# How it was run: as §1
# [15] = biological target: Fuc(a1-2)[GalNAc(a1-3)]Gal(b1-3)GlcNAc(b1-2)Man(a1-3)[Fuc(a1-2)[GalNAc(a1-3)]Gal(b1-3)GlcNAc(b1-2)Man(a1-6)]Man(b1-4)GlcNAc(b1-4)GlcNAc
# How it was run: as §1
# [16] = biological target: Fuc(a1-2)[GalNAc(a1-3)]Gal(b1-3)GlcNAc(b1-2)Man(a1-3)[Fuc(a1-2)[GalNAc(a1-3)]Gal(b1-3)GlcNAc(b1-2)Man(a1-6)]Man(b1-4)GlcNAc(b1-4)[Fuc(a1-6)]GlcNAc
# How it was run: as §1
# [17] = biological target: Fuc(a1-2)[GalNAc(a1-3)]Gal(b1-3)GlcNAc(b1-3)GalNAc
# How it was run: as §1
# [18] = biological target: Fuc(a1-2)[GalNAc(a1-3)]Gal(b1-3)GlcNAc(b1-6)GalNAc
# How it was run: as §1
# [19] = biological target: Fuc(a1-2)[GalNAc(a1-3)]Gal(b1-4)Glc
# How it was run: as §1
# [20] = biological target: Fuc(a1-2)[GalNAc(a1-3)]Gal(b1-4)GlcNAc
# How it was run: as §1
# [21] = biological target: Fuc(a1-2)[GalNAc(a1-3)]Gal(b1-4)GlcNAc(b1-2)Man
# How it was run: as §1
# [22] = biological target: Fuc(a1-2)[GalNAc(a1-3)]Gal(b1-4)GlcNAc(b1-2)Man(a1-3)[Fuc(a1-2)[GalNAc(a1-3)]Gal(b1-4)GlcNAc(b1-2)Man(a1-6)]Man(b1-4)GlcNAc(b1-4)GlcNAc
# How it was run: as §1
# [23] = biological target: Fuc(a1-2)[GalNAc(a1-3)]Gal(b1-4)GlcNAc(b1-2)Man(a1-3)[Fuc(a1-2)[GalNAc(a1-3)]Gal(b1-4)GlcNAc(b1-2)Man(a1-6)]Man(b1-4)GlcNAc(b1-4)[Fuc(a1-6)]GlcNAc
# How it was run: as §1
# [24] = biological target: Fuc(a1-2)[GalNAc(a1-3)]Gal(b1-4)GlcNAc(b1-3)Gal(b1-4)GlcNAc
# How it was run: as §1
# [25] = biological target: Fuc(a1-2)[GalNAc(a1-3)]Gal(b1-4)GlcNAc(b1-3)Gal(b1-4)GlcNAc(b1-3)Gal(b1-4)GlcNAc
# How it was run: as §1
# [26] = biological target: Fuc(a1-2)[GalNAc(a1-3)]Gal(b1-4)GlcNAc(b1-3)GalNAc
# How it was run: as §1
# [27] = biological target: Fuc(a1-2)[GalNAc(a1-3)]Gal(b1-4)GlcNAc(b1-3)[Fuc(a1-2)[GalNAc(a1-3)]Gal(b1-4)GlcNAc(b1-6)]GalNAc
# How it was run: as §1
# [28] = biological target: Fuc(a1-2)[GalNAc(a1-3)]Gal(b1-4)GlcNAc(b1-6)GalNAc
# How it was run: as §1
# [29] = biological target: Fuc(a1-2)[GalNAc(a1-3)]Gal(b1-4)[Fuc(a1-3)]GlcNAc
# How it was run: as §1
# [30] = biological target: Fuc(a1-2)[GalNAc(a1-3)]Gal(b1-4)[Fuc(a1-3)]GlcNAc(b1-3)GalNAc
# How it was run: as §1
binder,measurement,setting,value
"Endo180d1-D4 (Homo sapiens), Q9UBG0 (protein) MGPGRPAPAPWPRHLLRCVLLLGCLHLGRPGAPGDAALPEPNVFLIFSHGLQGCLEAQGGQVRVTPACNTSLPAQRWKWVSRNRLFNLGTMQCLGTGWPGTNTTASLGMYECDREALNLRWHCRTLGDQLSLLLGARTSNISKPGTLERGDQTRSGQWRIYGSEEDLCALPYHEVYTIQGNSHGKPCTIPFKYDNQWFHGCTSTGREDGHLWCATTQDYGKDERWGFCPIKSNDCETFWDKDQLTDSCYQFNFQSTLSWREAWASCEQQGADLLSITEIHEQTYINGLLTGYSSTLWIGLNDLDTSGGWQWSDNSPLKYLNWESDQPDNPSEENCGVIRTESSGGWQNRDCSIALPYVCKKKPNATAEPTPPDRWANVKVECEPSWQPFQGHCYRLQAEKRSWQESKKACLRGGGDLVSIHSMAELEFITKQIKQEVEELWIGLNDLKLQMNFEWSDGSLVSFTHWHPFEPNNFRDSLEDCVTIWGPEGRWNDSPCNQSLPSICKKAGQLSQGAAEEDHGCRKGWTWHSPSCYWLGEDQVTYSEARRLCTDHGSQLVTITNRFEQAFVSSLIYNWEGEYFWTALQDLNSTGSFFWLSGDEVMYTHWNRDQPGYSRGGCVALATGSAMGLWEVKNCTSFRARYICRQSLGTPVTPELPGPDPTPSLTGSCPQGWASDTKLRYCYKVFSSERLQDKKSWVQAQGACQELGAQLLSLASYEEEHFVANMLNKIFGESEPEIHEQHWFWIGLNRRDPRGGQSWRWSDGVGFSYHNFDRSRHDDDDIRGCAVLDLASLQWVAMQCDTQLDWICKIPRGTDVREPDDSPQGRREWLRFQEAEYKFFEHHSTWAQAQRICTWFQAELTSVHSQAELDFLSHNLQKFSRAQEQHWWIGLHTSESDGRFRWTDGSIINFISWAPGKPRPVGKDKKCVYMTASREDWGDQRCLTALPYICKRSNVTKETQPPDLPTTALGGCPSDWIQFLNKCFQVQGQEPQSRVKWSEAQFSCEQQEAQLVTITNPLEQAFITASLPNVTFDLWIGLHASQRDFQWVEQEPLMYANWAPGEPSGPSPAPSGNKPTSCAVVLHSPSAHFTGRWDDRSCTEETHGFICQKGTDPSLSPSPAALPPAPGTELSYLNGTFRLLQKPLRWHDALLLCESHNASLAYVPDPYTQAFLTQAARGLRTPLWIGLAGEEGSRRYSWVSEEPLNYVGWQDGEPQQPGGCTYVDVDGAWRTTSCDTKLQGAVCGVSSGPPPPRRISYHGSCPQGLADSAWIPFREHCYSFHMELLLGHKEARQRCQRAGGAVLSILDEMENVFVWEHLQSYEGQSRGAWLGMNFNPKGGTLVWQDNTAVNYSNWGPPGLGPSMLSHNSCYWIQSNSGLWRPGACTNITMGVVCKLPRAEQSSFSPSALPENPAALVVVLMAVLLLLALLTAALILYRRRQSIERGAFEGARYSRSSSSPTEATEKNILVSDMEMNEQQE",glycan array binding signal (z-score),[1],-0.69
same,glycan array binding signal (z-score),[2],0.745
same,glycan array binding signal (z-score),[3],-0.162
same,glycan array binding signal (z-score),[4],0.423
same,glycan array binding signal (z-score),[5],0.087
same,glycan array binding signal (z-score),[6],-0.882
same,glycan array binding signal (z-score),[7],-0.887
same,glycan array binding signal (z-score),[8],-0.153
same,glycan array binding signal (z-score),[9],4.86
same,glycan array binding signal (z-score),[10],-0.441
same,glycan array binding signal (z-score),[11],0.152
same,glycan array binding signal (z-score),[12],0.184
same,glycan array binding signal (z-score),[13],-0.342
same,glycan array binding signal (z-score),[14],-0.096
same,glycan array binding signal (z-score),[15],0.287
same,glycan array binding signal (z-score),[16],0
same,glycan array binding signal (z-score),[17],0.609
same,glycan array binding signal (z-score),[18],-0.539
same,glycan array binding signal (z-score),[19],0.001
same,glycan array binding signal (z-score),[20],0.403
same,glycan array binding signal (z-score),[21],0.219
same,glycan array binding signal (z-score),[22],-0.645
same,glycan array binding signal (z-score),[23],-0.407
same,glycan array binding signal (z-score),[24],-0.599
same,glycan array binding signal (z-score),[25],0.363
same,glycan array binding signal (z-score),[26],-0.354
same,glycan array binding signal (z-score),[27],0.059
same,glycan array binding signal (z-score),[28],0.821
same,glycan array binding signal (z-score),[29],-0.079
same,glycan array binding signal (z-score),[30],0.369
